Here are results for one substance from paper PMC4412882.

By UniProt entry, the sequences of proteins in these tests, tags left out.
UniProt P28907: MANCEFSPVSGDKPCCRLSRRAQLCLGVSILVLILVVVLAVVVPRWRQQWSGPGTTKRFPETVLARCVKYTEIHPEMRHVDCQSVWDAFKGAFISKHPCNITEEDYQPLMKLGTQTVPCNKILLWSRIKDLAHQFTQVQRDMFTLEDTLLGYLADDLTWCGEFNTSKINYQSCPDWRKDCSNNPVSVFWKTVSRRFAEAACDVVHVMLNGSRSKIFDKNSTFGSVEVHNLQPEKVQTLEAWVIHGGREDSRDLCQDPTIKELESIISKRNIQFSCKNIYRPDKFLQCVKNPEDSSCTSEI

Results are given in words; binding and its absence hold for the method and conditions named. Binding seen in cells or lysates may run through a third protein. Some results given as binding are weak or reduced against the parent protein; the word gives no strength.

The experiment has as its target Fgr (human (endogenous in HL-60)) (UniProt P09769). In words: co-IP; Fgr or AhR antibody with protein A/G beads overnight at 4 °C on 250 μg precleared HL-60 whole cell lysate (M-PER buffer); cells untreated or cultured 48 h with 1 μM RA, 20 μM VAF347 or both; blots probed for the partners.

Regarding “CD38 (from UniProt P28907 1-300) (receptor)”, the binding entry is on record as “binds”.
